Structures can show the parent of a compound that is named as a salt. The list shows a part of the results. Single values of this set are uncertain.
Tested on: Peyronie's disease tunica albuginea primary fibroblasts
Experiment: inhibition of TGF-beta1-induced alpha-SMA expression (myofibroblast transformation), relative to TGF-beta1-only and untreated controls; higher = stronger inhibition of myofibroblast transformation
Settings: 10 µM; TGF-beta1 10 ng/mL; 72 h

Compound | inhibition of TGF-beta1-induced alpha-SMA expression
CN(C)CCCN1c2ccccc2CCc2ccccc21 [Imipramine HCl] | 74.9%
C[C@H]1COc2c(N3CCN(C)CC3)c(F)cc3c(=O)c(C(=O)O)cn1c23 [Levofloxacin hydrate] | 2.46%
C[C@H]1COc2c(N3CCN(C)CC3)c(F)cc3c(=O)c(C(=O)O)cn1c23 [Levofloxacin] | -5.11%
NC(CO)C(=O)NNCc1ccc(O)c(O)c1O (centres undefined) [Benserazide HCl] | 18.7%
CCCC(=O)OCOC(=O)C1=C(C)NC(C)=C(C(=O)OC)C1c1cccc(Cl)c1Cl (centres undefined) [Clevidipine Butyrate] | 13.8%
CC(=O)Oc1ccccc1C(=O)O.CC(=O)Oc1ccccc1C(=O)O.NC(N)=O [Carbasalate Calcium] | 6.11%
CC1(C)S[C@@H]2[C@H](NC(=O)[C@H](N)c3ccccc3)C(=O)N2[C@H]1C(=O)OCOC(=O)[C@@H]1N2C(=O)C[C@H]2S(=O)(=O)C1(C)C [Sultamicillin] | 7.28%
O=C1c2cccc3c2[C@H](CCC3)CN1[C@@H]1CN2CCC1CC2 [Palonosetron HCl] | 58.3%
NCC[C@H](O)C(=O)N[C@@H]1C[C@H](N)[C@@H](O[C@H]2O[C@H](CN)[C@@H](O)[C@H](O)[C@H]2O)[C@H](O)[C@H]1O[C@H]1O[C@H](CO)[C@@H](O)[C@H](N)[C@H]1O [Amikacin disulfate] | -29.6%
NCC[C@H](O)C(=O)N[C@@H]1C[C@H](N)[C@@H](O[C@H]2O[C@H](CN)[C@@H](O)[C@H](O)[C@H]2O)[C@H](O)[C@H]1O[C@H]1O[C@H](CO)[C@@H](O)[C@H](N)[C@H]1O [Amikacin hydrate] | 21.2%
CC(C)CN(C[C@@H](O)[C@H](Cc1ccccc1)NC(=O)O[C@H]1CO[C@H]2OCC[C@H]21)S(=O)(=O)c1ccc(N)cc1 [Darunavir] | -1.68%
CC(C)CN(C[C@@H](O)[C@H](Cc1ccccc1)NC(=O)O[C@H]1CO[C@H]2OCC[C@H]21)S(=O)(=O)c1ccc(N)cc1 [Darunavir Ethanolate] | 8.49%
O=C(O)CSCC(=O)NC1CCSC1=O (centres undefined) [Erdosteine] | -4.43%
COc1cc(/C=C/C(=O)CC(=O)/C=C/c2ccc(O)c(OC)c2)ccc1O [Curcumin] | 9.18%
Cc1nc2n(c(=O)c1CCN1CCC(c3noc4cc(F)ccc34)CC1)CCCC2O (centres undefined) [Paliperidone] | 51.4%
Clc1ccc(C(Cn2ccnc2)OCc2csc3c(Cl)cccc23)c(Cl)c1 (centres undefined) [Sertaconazole nitrate] | 6.32%
CCOc1ccc(NC(=O)CC(C)O)cc1 (centres undefined) [Bucetin] | 8.31%
CC(=O)OCC1=C(C(=O)O)N2C(=O)[C@@H](NC(=O)Cc3cccs3)[C@H]2SC1 [Cephalothin] | 21.5%
CCCCc1nc(Cl)c(CO)n1Cc1ccc(-c2ccccc2-c2nnn[nH]2)cc1 [Losartan Potassium (DuP 753)] | -13.2%
CCCCc1nc(Cl)c(CO)n1Cc1ccc(-c2ccccc2-c2nnn[nH]2)cc1 [Losartan] | 7.66%
CC1(C)S[C@@H]2[C@H](NC(=O)Cc3ccccc3)C(=O)N2[C@H]1C(=O)O [Benzylpenicillin potassium] | -1.84%
CC1(C)S[C@@H]2[C@H](NC(=O)Cc3ccccc3)C(=O)N2[C@H]1C(=O)O [Penicillin G Sodium] | -22.1%

For reference, some entries already given.
Compound | inhibition of TGF-beta1-induced alpha-SMA expression
NCC[C@H](O)C(=O)N[C@@H]1C[C@H](N)[C@@H](O[C@H]2O[C@H](CN)[C@@H](O)[C@H](O)[C@H]2O)[C@H](O)[C@H]1O[C@H]1O[C@H](CO)[C@@H](O)[C@H](N)[C@H]1O [Amikacin hydrate] | 21.2%
CC(C)CN(C[C@@H](O)[C@H](Cc1ccccc1)NC(=O)O[C@H]1CO[C@H]2OCC[C@H]21)S(=O)(=O)c1ccc(N)cc1 [Darunavir] | -1.68%

Further results

Compound | inhibition of TGF-beta1-induced alpha-SMA expression
O=C1CCC(N2C(=O)c3ccccc3C2=O)C(=O)N1 (centres undefined) [Thalidomide] | 17.7%
c1cn2cc(-c3ccc4cn[nH]c4c3)nc(Nc3ccc(N4CCOCC4)cc3)c2n1 [Entospletinib (GS-9973)] | 85.8%
O=C1OC(CN2CCOCC2)CN1/N=C/c1ccc([N+](=O)[O-])o1 (centres undefined) [Furaltadone HCl] | -45.1%
C[n+]1ccccc1C=NO [Pralidoxime Iodide] | 8.88%
Cc1ccsc1C(=CCCN1CCC[C@@H](C(=O)O)C1)c1sccc1C [Tiagabine hydrochloride] | 8.48%
Cc1ccsc1C(=CCCN1CCC[C@@H](C(=O)O)C1)c1sccc1C [Tiagabine] | -12.4%
CNCCCN1c2ccccc2CCc2ccccc21 [Desipramine Hydrochloride] | 50.3%
O=C(O)CCNC(=O)c1ccc(/N=N/c2ccc(O)c(C(=O)O)c2)cc1 [Balsalazide disodium] | 2.71%
Cc1cccc(Nc2ccccc2C(=O)O)c1C [Mefenamic Acid] | 14.6%
CCC(C)n1ncn(-c2ccc(N3CCN(c4ccc(OCC5COC(Cn6cncn6)(c6ccc(Cl)cc6Cl)O5)cc4)CC3)cc2)c1=O (centres undefined) [Itraconazole] | 15.1%
CCOc1cc(N)c(Cl)cc1C(=O)NCC1CN(Cc2ccc(F)cc2)CCO1 (centres undefined) [Mosapride] | 7.52%
CCOc1cc(N)c(Cl)cc1C(=O)NCC1CN(Cc2ccc(F)cc2)CCO1 (centres undefined) [Mosapride Citrate] | -0.136%
C[n+]1ccccc1/C=N/O [Pralidoxime chloride] | -2.55%
C[C@H]1[C@H](OC(=O)CCC(=O)O)O[C@@H]2O[C@@]3(C)CC[C@H]4[C@H](C)CC[C@@H]1[C@@]24OO3 [Artesunate] | 4.08%
CC(C)NCC(O)c1cc(O)cc(O)c1 (centres undefined) [Metaproterenol Sulfate] | 18.8%
CCc1cnn2c(NCc3ccc[n+]([O-])c3)cc(N3CCCC[C@H]3CCO)nc12 | > 100%
O=C1NC(=O)[C@@H](c2cn3c4c(cccc24)CCC3)[C@@H]1c1c[nH]c2ccccc12 [Tivantinib (ARQ 197)] | 33%
COc1ccccc1N1CCN(CCCNc2cc(=O)n(C)c(=O)n2C)CC1 [Urapidil HCl] | 74.6%
O=C1/C(=C2\Nc3ccc(S(=O)(=O)O)cc3C2=O)Nc2ccc(S(=O)(=O)O)cc21 [Indigo carmine] | 28.8%
COc1nc(N)nc2c1ncn2[C@@H]1O[C@H](CO)[C@@H](O)[C@@H]1O [Nelarabine] | -9.84%
CCC(=O)OCC(=O)[C@@]1(OC(=O)CC)[C@@H](C)C[C@H]2[C@@H]3CCC4=CC(=O)C=C[C@]4(C)[C@@]3(Cl)[C@@H](O)C[C@@]21C [Beclomethasone dipropionate] | 62.8%
O=C(/C=C/C=C/c1ccc2c(c1)OCO2)N1CCCCC1 [Piperine] | 3.89%
